In PMC4597091:
Results are given in words; binding and its absence hold for the method and conditions named.

Target: T1, MmPepT1^ECD, extracellular domain of Mus musculus PepT1 (residues 391–580) (Mus musculus) (UniProt Q9JIP7)
T1 sequence: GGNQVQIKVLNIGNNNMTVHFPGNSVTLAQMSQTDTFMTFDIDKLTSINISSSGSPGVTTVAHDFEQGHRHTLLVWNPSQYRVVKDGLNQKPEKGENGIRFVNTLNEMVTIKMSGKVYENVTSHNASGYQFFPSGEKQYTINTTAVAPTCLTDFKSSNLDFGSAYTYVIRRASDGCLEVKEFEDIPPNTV
Experiment: SPR; PepT1^ECD or PepT2^ECD immobilised on a CM5 chip by amine coupling (1,000 RU); ligand 7.81-1000 μM injected; 20°C; 25 mM MES pH 6.5, 100 mM NaCl, 10 mM CaCl2, 0.005% Tween 20, 2 mg/ml dextran, 1 mg/ml salmon sperm DNA; global 1:1 model; both purified

binding: no binding (tested: 1000 μM)
Substance: chymotrypsin (enzyme)
